From PMC11035800
Substitutions are numbered along the chain they refer to. No constants are given. Whether binding was seen depends on the method and setting. In cells and extracts the contact can be indirect. Sequences can lack the tags named with a protein.

The chains behind the UniProt entries cited, without tags or fusion partners.
UniProt Q01196: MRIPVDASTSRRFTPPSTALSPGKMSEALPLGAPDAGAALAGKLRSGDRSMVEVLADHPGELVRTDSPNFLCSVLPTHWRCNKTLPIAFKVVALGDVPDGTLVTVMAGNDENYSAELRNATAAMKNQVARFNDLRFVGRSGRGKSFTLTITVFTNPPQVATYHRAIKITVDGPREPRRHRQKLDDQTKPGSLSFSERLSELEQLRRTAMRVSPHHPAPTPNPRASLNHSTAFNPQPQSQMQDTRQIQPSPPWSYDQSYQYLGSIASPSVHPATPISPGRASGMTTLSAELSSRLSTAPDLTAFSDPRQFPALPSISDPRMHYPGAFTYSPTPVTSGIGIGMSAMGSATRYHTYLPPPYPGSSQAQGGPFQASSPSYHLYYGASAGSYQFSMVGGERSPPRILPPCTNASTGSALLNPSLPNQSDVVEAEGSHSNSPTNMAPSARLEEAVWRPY

Legend:
Assay in all cases: co-IP; anti-MYC beads on extracts of HEL cells overexpressing MYC-tagged CARM1 (WT, Y334F, Y149F, Y149F/Y334F); blot with anti-RUNX1 mouse antibody
[1] = target: T1, MYC-tagged CARM1 Y334F overexpressed in HEL cells (UniProt Q86X55)
T1 sequence: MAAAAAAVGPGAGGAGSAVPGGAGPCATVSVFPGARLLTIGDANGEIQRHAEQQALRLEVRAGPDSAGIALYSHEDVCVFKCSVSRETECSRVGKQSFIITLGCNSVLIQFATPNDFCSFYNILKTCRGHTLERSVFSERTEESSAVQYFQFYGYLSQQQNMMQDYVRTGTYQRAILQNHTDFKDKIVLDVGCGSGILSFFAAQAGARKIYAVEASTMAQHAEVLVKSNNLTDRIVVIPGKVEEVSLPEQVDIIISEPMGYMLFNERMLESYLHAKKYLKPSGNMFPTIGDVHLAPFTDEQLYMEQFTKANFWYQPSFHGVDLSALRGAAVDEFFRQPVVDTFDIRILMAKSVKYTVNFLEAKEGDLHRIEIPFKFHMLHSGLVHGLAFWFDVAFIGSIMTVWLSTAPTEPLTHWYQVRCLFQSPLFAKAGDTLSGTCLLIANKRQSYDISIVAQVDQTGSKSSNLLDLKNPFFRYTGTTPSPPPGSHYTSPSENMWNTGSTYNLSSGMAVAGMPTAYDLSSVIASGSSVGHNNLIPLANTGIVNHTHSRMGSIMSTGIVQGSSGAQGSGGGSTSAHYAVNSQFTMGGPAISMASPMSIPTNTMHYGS

[2] = target: T2, MYC-tagged CARM1 Y149F overexpressed in HEL cells (UniProt Q86X55)
T2 sequence: T1 sequence with Y149F, F334Y

[3] = target: T3, MYC-tagged CARM1 Y149F/Y334F overexpressed in HEL cells (UniProt Q86X55)
T3 sequence: T1 sequence with Y149F

Measured: binding

RUNX1 transcription factor, endogenous in HEL cells (from UniProt Q01196 1-453)
no binding: all assays above
